Assay results from patent publication US8415391B2, “3.2.1-bicyclo-octene and -octane compounds” (International Flavors & Fragrances Inc., priority 2010, dated 2013).

Test: Odor description (fragrance notes)

| Structure (SMILES) | Odor notes as described |
| --- | --- |
| C=CCOC1CC2(C)CCC(C2)C1C (stereo not drawn) [Structure VI, 3-allyloxy-1,4-dimethyl-bicyclo[3.2.1]octane] | fruity, green, dirty, harsh, metallic, slight woody, camphor, juicy, acetophenone-like, and fenchol-like notes |
| COC(=O)OC1CC2(C)CCC(C2)C1C (stereo not drawn) [Structure V, carbonic acid 1,4-dimethyl-bicyclo[3.2.1]oct-3-yl ester methyl ester] | fruity and green notes |
| CC12CCC(C1)C1(C)OC1C2 (stereo not drawn) [2,6-Dimethyl-3-oxa-tricyclo[4.2.1.0*2,4*]nonane] | camphor, woody, fresh, sweet, minty, and thujone-like notes |
| CC1C(=O)CC2(C)CCC1C2 (stereo not drawn) [1,4-Dimethyl-bicyclo[3.2.1]octan-3-one] | woody, fresh, minty, and menthol notes |
| CC(=O)OC1CC2(C)CCC(C2)C1C (stereo not drawn) [Structure IV, acetic acid 1,4-dimethyl-bicyclo[3.2.1]oct-3-yl ester] | fruity, woody, and fresh notes |
| CC1=CCC2(C)CCC1C2 (stereo not drawn) [Structure I, 2,5-dimethyl-bicyclo[3.2.1]oct-2-ene] | green, terpineol, woody, and black pepper notes |
